Laboratory results published in PubChem BioAssay AID720551 (National Center for Advancing Translational Sciences (NCATS), 2013).
The campaign covered roughly 340,000 compounds. About 1,300 (0.38%) were called active. This list was built around the results that the source calls inconclusive (neither active nor inactive); the mix of calls is not that of the screen.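 Rule for the calls: active = maximum activity change below -70%; inconclusive = maximum activity change between -70% and -50%; inactive = maximum activity change above -50%.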
% is set by controls: 0 for no effect and ±100 for the full control effect.

Chains of the proteins cited; added tags and fusions are not shown. Lines headed by an entry give the natural chain unless they say otherwise; changes in a name come on top.
UniProt Q12809: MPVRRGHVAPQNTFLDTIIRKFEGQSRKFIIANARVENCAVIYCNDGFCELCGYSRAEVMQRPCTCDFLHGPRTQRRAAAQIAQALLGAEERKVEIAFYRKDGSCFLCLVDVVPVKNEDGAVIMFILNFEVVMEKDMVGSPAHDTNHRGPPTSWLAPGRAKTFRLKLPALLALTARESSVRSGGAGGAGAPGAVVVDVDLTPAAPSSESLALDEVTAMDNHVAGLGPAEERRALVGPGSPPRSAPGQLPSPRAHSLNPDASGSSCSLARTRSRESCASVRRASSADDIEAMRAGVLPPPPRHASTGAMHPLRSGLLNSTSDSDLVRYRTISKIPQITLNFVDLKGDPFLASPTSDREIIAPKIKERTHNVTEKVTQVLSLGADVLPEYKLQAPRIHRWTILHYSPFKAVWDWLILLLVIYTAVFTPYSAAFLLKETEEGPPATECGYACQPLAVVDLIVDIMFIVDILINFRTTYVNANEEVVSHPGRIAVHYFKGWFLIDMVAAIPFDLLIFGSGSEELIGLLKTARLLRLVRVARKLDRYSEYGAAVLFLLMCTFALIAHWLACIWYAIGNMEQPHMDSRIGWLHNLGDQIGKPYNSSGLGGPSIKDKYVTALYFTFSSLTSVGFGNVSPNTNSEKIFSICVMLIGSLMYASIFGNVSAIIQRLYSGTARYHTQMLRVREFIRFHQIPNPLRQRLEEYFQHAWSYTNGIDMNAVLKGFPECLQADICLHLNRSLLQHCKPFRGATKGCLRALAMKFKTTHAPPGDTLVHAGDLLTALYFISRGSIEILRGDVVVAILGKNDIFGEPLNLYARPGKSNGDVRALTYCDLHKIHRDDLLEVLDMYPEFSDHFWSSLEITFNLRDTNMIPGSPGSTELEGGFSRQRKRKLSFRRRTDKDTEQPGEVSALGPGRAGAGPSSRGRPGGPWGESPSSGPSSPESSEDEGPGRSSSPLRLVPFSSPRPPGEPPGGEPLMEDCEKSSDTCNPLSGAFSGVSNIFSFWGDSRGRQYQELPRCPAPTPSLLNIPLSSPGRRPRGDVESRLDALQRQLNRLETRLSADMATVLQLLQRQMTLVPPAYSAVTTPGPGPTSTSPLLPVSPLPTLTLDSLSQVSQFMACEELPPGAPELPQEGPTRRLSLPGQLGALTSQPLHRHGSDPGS

What follows are compounds tested against Voltage-gated inwardly rectifying potassium channel KCNH2 (Homo sapiens) (UniProt Q12809) (assay: qHTS for Inhibitors of KCHN2 3.1: Wildtype qHTS). Conditions: U2OS, BacMam KCNH2, thallium flux FluxOr; at 1.84 µM, active compounds read low.
Outline: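 U2OS cells were transduced with wild-type KCNH2 virus (2.03 x 10^8 / mL) for 4 h at room temperature, then cultured overnight at 37 C. Thallium flux was read with FluxOr dye. Rate constants were normalized to DMSO controls.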
In the case of `COc1cc(/C=N/Nc2nc(Nc3ccccc3)nc(N3CCOCC3)n2)ccc1OC(=O)c1ccco1`, the activity change is reported as inconclusive: -55.3%.
For `O=c1cc(CN2CCN(Cc3ccccc3)CC2)c2ccc(O)cc2o1`, the activity change was inconclusive: -61%.
`CC1=CC2C(C3C=CC2(C)C(=O)C3(C)O)C(C)(O)C1=O` (stereo unspecified) was tested, and the activity change was inactive: -22.7%.
For `Cc1ccc(NS(=O)(=O)c2ccc(C)c(NC(=S)NCCN3CCOCC3)c2)c(C)c1`, the activity change was inactive: 3.61%.
In the case of `O=c1oc2ccccc2c(Nc2ccc(Cl)cc2)c1[N+](=O)[O-]`, the activity change is reported as inactive: -7.94%.
For `CCCNC(=O)c1ccc(N2CCC3(CC2)CC(c2ccccc2)=NO3)c(NC(=O)c2ccc(Br)cc2)c1`, the activity change was inconclusive: -60.2%.
In the case of `CCCC[C@@H](CNC)NC[C@H](NCCCCC1CCCCC1)C(C)C`, the activity change is reported as inconclusive: -59.2%.
`O=C(Nc1cccc(-c2cccc(Cl)c2)c1)C1CCN(Cc2ccccn2)CC1` was tested, and the activity change was inconclusive: -68%.
For `Cc1ccc2nc(-c3cccnc3)oc2c1`, the activity change was active: -221%.
For `N=c1c2c(-c3ccccc3)c(-c3ccccc3)n(Cc3ccco3)c2ncn1Cc1ccco1`, the activity change was inconclusive: -52.3%.
In the case of `Cc1ccc(CC(=O)N(C)CC(=O)Nc2ccc(N3CCOCC3)cc2)cc1C`, the activity change is reported as inactive: -7.23%.
In the case of `Cc1ccc(Cn2c(SCCN3CCCCC3)nc3c2c(=O)[nH]c(=O)n3C)cc1`, the activity change is reported as inactive: -42.4%.
In the case of `Cc1occc1C(=O)N1CCN(C(c2ccccc2)c2ccccc2)CC1`, the activity change is reported as inactive: 2.31%.
With `O=C(Oc1cccc(C(=S)N2CCOCC2)c1)c1ccc([N+](=O)[O-])cc1[N+](=O)[O-]` the activity change was inactive: -10.5%.
`O=C(Nc1cccnc1)c1ccc(COc2cc(Cl)ccc2Cl)o1` was tested, and the activity change was active: -104%.
With `Cc1cc(-c2nn(-c3ccccc3F)cc2CN2CCN(c3ccncc3)CC2)c(C)s1` the activity change was active: -137%.
For `CN(C)c1ccc(/C=N/NC(N)=S)cc1[N+](=O)[O-]`, the activity change was inactive: -13.4%.
With `COc1ccc(CN2CCC(C(=O)c3ccc(Cl)cc3)CC2)cc1` the activity change was active: -110%.
In the case of `O=C(CN1CCN(CC(=O)Nc2ccc3c(c2)OCO3)CC1)Nc1ccc(F)cc1`, the activity change is reported as active: -129%.
`O=P(O)(O)c1ccccc1OCCOCCOCCOCCOc1ccccc1P(=O)(O)O` was tested, and the activity change was inactive: -2.51%.
`CCC[C@@H](CN1CCC[C@H]1CN1C(N)=NC[C@@H]1Cc1ccccc1)N1C[C@@H]([C@H](C)CC)N(CCCC2CCCC2)C1=N` was tested, and the activity change was inconclusive: -58.6%.
For `COc1ccc(-n2c(Cc3cccn3C)nnc2SCC(=O)Nc2nccs2)cc1`, the activity change was inconclusive: -50.3%.
With `CC(C)C[C@@H](CSc1ccccc1)N1CCN(CCc2ccccc2)CCC1=O` the activity change was active: -77%.
`Cc1cc(C)cc(N(CCC#N)C(=O)COC(=O)C2CCN(c3ccc(C(F)(F)F)cn3)CC2)c1` was tested, and the activity change was inconclusive: -54.8%.
With `COc1ccc(/C=C/C(=O)N2CCCc3ccccc32)c(OC)c1` the activity change was active: -79%.
For `Nc1nc(-c2ccco2)cs1`, the activity change was inconclusive: -59.7%.
For `CCc1cc[n+](C(C(=S)Nc2cccc(C)c2)=C([O-])c2ccc(C)c([N+](=O)[O-])c2)cc1`, the activity change was inactive: 25.9%.
`O=C(NC(O)C(=O)c1ccccc1)c1cccs1` (stereo unspecified) was tested, and the activity change was inconclusive: -54.5%.
For `COc1cc(OC)cc(-n2nc(C(=O)N3CC(C)CC(C)C3)c3ccccc3c2=O)c1` (stereo unspecified), the activity change was inconclusive: -58.7%.
`CCN(CC)C(=O)C1=C(C)N(Cc2ccc(F)cc2)C(=O)C(CC(=O)NCc2cccs2)C1` (stereo unspecified) was tested, and the activity change was inconclusive: -58.3%.
`COCC(=O)N/N=C\c1ccccc1OC/C=C/c1ccccc1` was tested, and the activity change was inconclusive: -55.5%.
In the case of `CN1/C(=C\C=C2/C(=O)Oc3ccccc3C2=O)C(C)(C)c2ccccc21`, the activity change is reported as inconclusive: -64.7%.
`O=C(COC(=O)c1ccc([N+](=O)[O-])o1)Nc1ccc2c(c1)OC(F)(F)O2` was tested, and the activity change was inconclusive: -50%.
With `Cc1ccccc1OCCNC(=O)CNC(=O)c1ccccc1O` the activity change was inconclusive: -52.7%.
`O=C(CSc1ccc(-c2ccco2)nn1)Nc1ccccc1` was tested, and the activity change was inactive: 0.515%.
In the case of `CC1(C)CC(=O)C=C(c2cccc(OC(=O)c3ccc(-c4ccccc4)cc3)c2)C1=O`, the activity change is reported as active: -142%.
`CCCNC(=O)c1ccc(N2CCC3(CC2)CC(c2ccccc2)=NO3)c(NC(=O)Cc2ccc(F)cc2)c1` was tested, and the activity change was inconclusive: -60.7%.
`COc1ccc(C(=O)NC2CC2)cc1OC1CCN(Cc2ccc(F)cc2)CC1` was tested, and the activity change was inconclusive: -53.3%.
In the case of `CCOC(=O)N1CCN(C(=O)c2ccc3c(c2)N(C)C(=O)/C(=C\c2ccc(OCC)c(OC)c2)S3)CC1`, the activity change is reported as inconclusive: -55.2%.
With `O=C(/C=C/c1cc([N+](=O)[O-])ccc1OC(F)F)Nc1cccc(OC(F)F)c1` the activity change was active: -158%.
With `CN(C)CCCn1c(SCC(=O)Nc2nc(-c3cccc(Br)c3)cs2)nc2ccccc2c1=O` the activity change was inconclusive: -52.3%.
